Laboratory results from patent US20150023989A1 (SEATTLE GENETICS, INC., priority 2011, published 2015).

Test: general procedure: solution-phase peptide synthesis; HATU/N,N-diisopropylethylamine; EDC/HOBt/N,N-diisopropylethylamine
Settings: trifluoroacetate; for step yield: late stage modification step

Row | Substance | conjugation yield (conjugation step) | step yield
1 | N-(6-{[4-(2,5-dioxo-2,5-dihydro-1H-pyrrol-1-yl)butanoyl]amino}hexyl)-N-methyl-L-valyl-N-[(3R,4S,5S)-3-methoxy-1-{(2S)-2-[(1R,2R)-1-methoxy-2-methyl-3-{[(2S,3S)-1-(1,2-oxazinan-2-yl)-1-oxo-3-phenylbutan-2-yl]amino}-3-oxopropyl]pyrrolidin-1-yl}-5-methyl-1-oxoheptan-4-yl]-N-methyl-L-valinamide | 56% | 
2 | N-[6-(2,5-dioxo-2,5-dihydro-1H-pyrrol-1-yl)hexyl]-N-methyl-L-valyl-N-[(3R,4S,5S)-1-{(2S)-2-[(1R,2R)-3-{[(1S,2R)-1-(1,4-dihydro-3H-2,3-benzoxazin-3-ylcarbonyl)-2-phenylcyclopropyl]amino}-1-methoxy-2-methyl-3-oxopropyl]pyrrolidin-1-yl}-3-methoxy-5-methyl-1-oxoheptan-4-yl]-N-methyl-L-valinamide |  | 21%
3 | N-methyl-L-valyl-N-[(3R,4S,5S)-1-{(2S)-2-[(1R,2R)-3-{[(1S,2R)-1-(1,4-dihydro-3H-2,3-benzoxazin-3-ylcarbonyl)-2-phenylcyclopropyl]amino}-1-methoxy-2-methyl-3-oxopropyl]pyrrolidin-1-yl}-3-methoxy-5-methyl-1-oxoheptan-4-yl]-N-methyl-L-valinamide trifluoroacetate |  | 92%
